The other results are listed elsewhere or left out.

The text below walks through data of the supplement of paper PMC12067093, “Discovery and optimisation of a covalent ligand for TRIM25 and its application to targeted protein ubiquitination” (Chemical Science, 2025).
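Also: competitive chemoproteomic profiling in live THP-1 cells with an iodoacetamide desthiobiotin (IA-DTB) probe, comparing probe-labelled peptide intensities in compound-treated cells against DMSO-treated controls.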

Compound in the assay: CC1Cc2ccccc2N1C(=O)C1CCCN(C1)C(=O)CCl (mixture of isomers) [TRIM25 ligand 11 (diastereomer mixture)]
The assay can be described thus: probe-labelled cysteine peptide fold change vs DMSO (competition) (log2 fold change); higher = less target engagement (more negative = stronger competition). The settings on record: 10 µM; THP-1; incubation time: 4 h.
For the target “DHX16_O60231_932_VEVGLSSCQGDYIR (UniProt O60231)”, the “probe-labelled cysteine peptide fold change” value was found to be 0.0609. For “DNAJC7_Q99615_175_ALEFAPACHR (UniProt Q99615)”, the “probe-labelled cysteine peptide fold change” value came out at 0.0846.

In the case of “DHRS4L2_Q6PKH6_86_KQQNVDQAVATLQGEGLSVTGTVCHVGK (UniProt Q6PKH6)”, the “probe-labelled cysteine peptide fold change” value is -0.0195. As for “DKK2_Q9UBU2_214_ICKPVLHQGEVCTK (UniProt Q9UBU2)”, the “probe-labelled cysteine peptide fold change” value was -0.16. Consider “DHX9_Q08211_612_DKDDDGGEDDDANCNLICGDEYGPETR (UniProt Q08211)”, for which the “probe-labelled cysteine peptide fold change” value was 0.218. With “DICER1_Q9UPY3_1063_LHCLLTAEELR (UniProt Q9UPY3)”, the “probe-labelled cysteine peptide fold change” value came to 0.0331. Regarding “DIAPH1_O60610_1027_MTLLHFLAELCENDYPDVLK (UniProt O60610)”, the “probe-labelled cysteine peptide fold change” value is 0.0711. On to “DMTF1_Q9Y222_271_DRCRLMKDTCNTGK (UniProt Q9Y222)”, for which the “probe-labelled cysteine peptide fold change” value worked out at 0.0432. As to “DNAJA1_P31689_153_GAVECCPNCR (UniProt P31689)”, the “probe-labelled cysteine peptide fold change” value is -0.148. Under “DNAJA3_Q96EY1_289+292_GSIIISPCVVCR (UniProt Q96EY1)” stands 0.00428; under “DHX8_Q14562_280_VTSIMQFGCFVQLEGLR (UniProt Q14562)”, 0.143; under “DIS3L2_Q8IYB7_797_IYCNALALR (UniProt Q8IYB7)”, 0.0363. Under “DHX9_Q08211_608+612_KDKDDDGGEDDDANCNLICGDEYGPETR (UniProt Q08211)” stands -0.128; under “DNAAF5_Q86Y56_349_RPVLGCR (UniProt Q86Y56)”, -0.0781; under “DIAPH2_O60879_862_INFLCK (UniProt O60879)”, -0.0162. Under “DIAPH3_Q9NSV4_1158_EACNVESNR (UniProt Q9NSV4)” stands -0.126.
